Data taken from PubChem BioAssay AID2685 (National Center for Advancing Translational Sciences (NCATS), 2010).
This is one part of the list. Further columns of the screen follow, without active or inactive calls. Most of these compounds were active or inconclusive in the main read-out, so they are no random draw. The note in brackets gives the kind of curve behind each potency; many fits are weak.

Experiment: qHTS Assay for Lipid Storage Modulators in Drosophila S3 Cells;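 for cell number change: cells counted by Cell Tracker Red CMTPX staining in the red channel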
Conditions: BODIPY lipid droplet fluorescence, 18-24 h; for cell number change: measured here: cell count max response, cells fed with added oleic acid
How it was run: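 Laser-scanning cytometry quantifies lipid droplet accumulation (500–530 nm total intensity; droplet/cell object ratio) in oleic acid-fed (400 uM added) Drosophila S3 cells treated with a concentration series. 20 uM Triacsin C defined 100% inhibition.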

[1] = measured here: lipid fluorescence (Fed channel) AC50, cells fed with added oleic acid
[2] = measured here: cell number channel AC50, cells fed with added oleic acid

Row | Structure (SMILES) | cell number change [%] | AC50 [1] | AC50 [2]
1 | Cn1c(COc2ccccc2)nc2ccccc21 | 11.3 | – | –
2 | O=C(c1ccccc1)c1ccccc1C(=O)N1CCCC1 | -8.67 | – | –
3 | CC1CN(S(=O)(=O)N2CCOCC2)CCN1S(=O)(=O)N1CCOCC1 (centres undefined) | -47.7 | 29.1 µM [falling, single point] | –
4 | Cc1ccc(C)c(NC(=O)CCc2ccc(S(=O)(=O)NC3CCCCC3)cc2)c1 | 29.4 | – | –
5 | OCCN1CCN(CC(O)COc2ccc(Cl)cc2)CC1 (centres undefined) | -23.3 | – | –
6 | CCCN(CCC)CCCNC(=O)C1CCN(S(=O)(=O)c2cccc3nsnc23)CC1 | 4.78 | – | –
7 | O=C1NC(Cc2ccccc2)C(=O)N1Cc1cc([N+](=O)[O-])cc2c1OCOC2 (centres undefined) | 22.2 | – | 0.517 µM [rising, full curve, poor fit]
8 | O=C(CCc1ccc(S(=O)(=O)NCCc2ccccc2)cc1)NCc1ccc2c(c1)OCO2 | – | 8.2 µM [rising, partial curve] | –
9 | O=C(CCc1ccccc1)Nc1nc2ccc(S(=O)(=O)N3CCOCC3)cc2s1 | 80.9 | – | 20.6 µM [rising, single point]
10 | CCN(CC)S(=O)(=O)c1ccc(OCC(=O)NC(=O)Cc2ccccc2)c([N+](=O)[O-])c1 | -16.4 | 32.6 µM [falling, partial curve, poor fit] | –
11 | COc1ccccc1NC(=O)NNC(=O)c1ccc2c(c1)NC(=O)C(C)(C)O2 | – | 0.116 µM [rising, single point] | –
12 | COc1ccc(CCCc2nnc(SCc3nc4ccccc4c(=O)[nH]3)n2C)cc1C | 8.7 | – | –
13 | Cc1cc(C)c(S(N)(=O)=O)c(C)c1-n1cnnn1 | -2.97 | 0.00517 µM [falling, full curve, poor fit] | –
14 | Cc1ccc(C(=O)Nc2nc(C)c(C)s2)o1 | 100 | 23.1 µM [rising, single point] | 18.4 µM [rising, single point]
15 | C/C(CC(=O)NCc1ccc(F)cc1)=N\NC(N)=S | -11.9 | 3.26 µM [falling, full curve] | 0.164 µM [falling, full curve, poor fit]
16 | Cc1ccc(S(=O)(=O)NC(=O)NCc2ccccn2)cc1 | 5.21 | 0.651 µM [falling, full curve] | –
17 | O=C(O)c1ccccc1N/N=C/c1c(Sc2nnnn2-c2ccccc2)nc2ccccn2c1=O | 15.5 | – | –
18 | Cc1ccc(C)c(N)c1 | – | 25.9 µM [falling, single point] | –
19 | C/C(=N\NC(=O)C1CC1)c1cccc(NC(=O)c2cccc(Cl)c2)c1 | – | 20.6 µM [falling, partial curve, poor fit] | –

Laid out differently: entries from further up.

| Row | Structure (SMILES) | cell number change [%] | AC50 [1] | AC50 [2] |
| --- | --- | --- | --- | --- |
| 10 | CCN(CC)S(=O)(=O)c1ccc(OCC(=O)NC(=O)Cc2ccccc2)c([N+](=O)[O-])c1 | -16.4 | 32.6 µM [falling, partial curve, poor fit] | – |
| 11 | COc1ccccc1NC(=O)NNC(=O)c1ccc2c(c1)NC(=O)C(C)(C)O2 | – | 0.116 µM [rising, single point] | – |
